Measurements published in patent US9918968B2, “Rapamycin analogs targeting proteasome function in the treatment of cancer” (THE BOARD OF REGENTS OF THE UNIVERSITY OF TEXAS SYSTEM, priority 2013, dated 2018).
Some results were stated once for a whole list of compounds, not compound by compound.

Legend:
Type in all cases: biochemical
Conditions in all cases: up to 10 μM, no concentration-dependent trend
[1] = tested on: T1, human 20S proteasome, PGPH peptidase; test: PGPH peptidase activity of purified human 20S proteasome (CbzLLE-MCA)
T1 construct: purchased Enzo LifeSciences
Experimental: (§1) Human purified proteasome complexes were purchased from Enzo LifeSciences or Boston Biochemicals (19S complex). BODIPY-casein (Invitrogen/Molecular Probes) was used as a model protein substrate, with increasing fluorescence of BODIPY labeled peptide products of degradation monitored for up to 8 hours at 37° C. The peptidase activity of the enzyme was measured as arbitrary intensity units of the released fluorescent group 7-amino-4-methylcoumarin (AMC) from peptide substrates, as described. The common substrates specific for the three kinds of active sites: succinyl-LeuLeuValTyr-7-amido-4-methylcoumarin (Suc-LLVY-MCA; for the ChT-L activity; Bachem), butoxycarbonyl-LeuArgArg-MCA (BocLRR-MCA; for T-L; Bachem) and carbobenzoxy-LeuLeuGlu-MCA (CbzLLE-MCA; for PGPH; Enzo Life Sciences International, Inc.) were used at 100 μM final concentrations, unless stated otherwise (Gaczynska and Osmulski, 2005). […] The fluorescence of products was monitored every 2 minutes with a Fluoroskan Ascent plate reader. Reaction rates were calculated from smoothed linear segment of kinetic curves using OriginPro 8.6 (OriginLabs, Northampton, Mass.). […] The kinetic parameters of inhibition were analyzed in terms of the Michaelis-Menten formalism using the enzyme kinetic module of SigmaPlot v.12 (Systat Software, Inc, San Jose, Calif.) to perform the respective calculations. […]

[2] = tested on: T2, human 20S proteasome, ChT-L peptidase; test: ChT-L peptidase activity of purified human 20S proteasome (Suc-LLVY-MCA)
T2 construct: purchased Enzo LifeSciences
Experimental: Human purified proteasome complexes were purchased from Enzo LifeSciences or Boston Biochemicals (19S complex). BODIPY-casein (Invitrogen/Molecular Probes) was used as a model protein substrate, with increasing fluorescence of BODIPY labeled peptide products of degradation monitored for up to 8 hours at 37° C. The peptidase activity of the enzyme was measured as arbitrary intensity units of the released fluorescent group 7-amino-4-methylcoumarin (AMC) from peptide substrates, as described. […] Proteasome substrates, rapamycin, its derivatives, and competing peptides were stocked in DMSO and diluted 100-fold in the reaction mixtures. The Rpt5 and PA200 C-terminal peptides were synthesized in the Departmental Peptide Synthesis Core using the standard SPPS chemistry. To activate the latent 20S proteasome, 0.005% (final concentration) of sodium dodecyl sulfate (SDS) was used. […] The fluorescence of products was monitored every 2 minutes with a Fluoroskan Ascent plate reader. Reaction rates were calculated from smoothed linear segment of kinetic curves using OriginPro 8.6 (OriginLabs, Northampton, Mass.). […] The kinetic parameters of inhibition were analyzed in terms of the Michaelis-Menten formalism using the enzyme kinetic module of SigmaPlot v.12 (Systat Software, Inc, San Jose, Calif.) to perform the respective calculations. […]

[3] = tested on: T3, human 20S proteasome, T-L peptidase; test: T-L peptidase activity of purified human 20S proteasome (BocLRR-MCA)
T3 construct: purchased Enzo LifeSciences
Experimental: as §1

Oc1cccc(-c2nc(N3CCOCC3)c3oc4ncccc4c3n2)c1 [PI-103]
≤ 20%: change of PGPH peptidase activity [1] | change of ChT-L peptidase activity [2] | change of T-L peptidase activity [3]
